No constants are given. Whether binding was seen depends on the method and setting. In cells and extracts the contact can be indirect. Some binding calls cover weakened binding; strength is not graded here.
B1: Lamina-Associated Polypeptide 2 β isoform (protein, UniProt P42167 1-454)
chain: MPEFLEDPSVLTKDKLKSELVANNVTLPAGEQRKDVYVQLYLQHLTARNRPPLPAGTNSKGPPDFSSDEEREPTPVLGSGAAAAGRSRAAVGRKATKKTDKPRQEDKDDLDVTELTNEDLLDQLVKYGVNPGPIVGTTRKLYEKKLLKLREQGTESRSSTPLPTISSSAENTRQNGSNDSDRYSDNEEDSKIELKLEKREPLKGRAKTPVTLKQRRVEHNQSYSQAGITETEWTSGSSKGGPLQALTRESTRGSRRTPRKRVETSEHFRIDGPVISESTPIAETIMASSNESLVVNRVTGNFKHASPILPITEFSDIPRRAPKKPLTRAEVGEKTEERRVERDILKEMFPYEASTPTGISASCRRPIKGAAGRPLELSDFRMEESFSSKYVPKYVPLADVKSEKTKKGRSIPVWIKILLFVVVAVFLFLVYQAMETNQVNPFSNFLHVDPRKSN
B2: lamin B2 (protein, UniProt Q03252 1-620)
chain: MSPPSPGRRREQRRPRAAATMATPLPGRAGGPATPLSPTRLSRLQEKEELRELNDRLAHYIDRVRALELENDRLLLKISEKEEVTTREVSGIKALYESELADARRVLDETARERARLQIEIGKLRAELDEVNKSAKKREGELTVAQGRVKDLESLFHRSEVELAAALSDKRGLESDVAELRAQLAKAEDGHAVAKKQLEKETLMRVDLENRCQSLQEELDFRKSVFEEEVRETRRRHERRLVEVDSSRQQEYDFKMAQALEELRSQHDEQVRLYKLELEQTYQAKLDSAKLSSDQNDKAASAAREELKEARMRLESLSYQLSGLQKQASAAEDRIRELEEAMAGERDKFRKMLDAKEQEMTEMRDVMQQQLAEYQELLDVKLALDMEINAYRKLLEGEEERLKLSPSPSSRVTVSRATSSSSGSLSATGRLGRSKRKRLEVEEPLGSGPSVLGTGTGGSGGFHLAQQASASGSVSIEEIDLEGKFVQLKNNSDKDQSLGNWRIKRQVLEGEEIAYKFTPKYILRAGQMVTVWAAGAGVAHSPPSTLVWKGQSSWGTGESFRTVLVNADGEEVAMRTVKKSSVMRENENGEEEEEEAEFGEEDLFHQQGDPRTTSRGCYVM
B3: Lamina-Associated Polypeptide 2 γ isoform (protein, UniProt P42167-2 1-345)
chain: MPEFLEDPSVLTKDKLKSELVANNVTLPAGEQRKDVYVQLYLQHLTARNRPPLPAGTNSKGPPDFSSDEEREPTPVLGSGAAAAGRSRAAVGRKATKKTDKPRQEDKDDLDVTELTNEDLLDQLVKYGVNPGPIVGTTRKLYEKKLLKLREQGTESRSSTPLPTISSSAENTRQNGSNDSDRYSDNEEDSKIELKLEKREPLKGRAKTPVTLKQRRVEHNQVGEKTEERRVERDILKEMFPYEASTPTGISASCRRPIKGAAGRPLELSDFRMEESFSSKYVPKYVPLADVKSEKTKKGRSIPVWIKILLFVVVAVFLFLVYQAMETNQVNPFSNFLHVDPRKSN
B4: Lamina-Associated Polypeptide 2 α isoform (protein, UniProt P42166 1-694)
chain: MPEFLEDPSVLTKDKLKSELVANNVTLPAGEQRKDVYVQLYLQHLTARNRPPLPAGTNSKGPPDFSSDEEREPTPVLGSGAAAAGRSRAAVGRKATKKTDKPRQEDKDDLDVTELTNEDLLDQLVKYGVNPGPIVGTTRKLYEKKLLKLREQGTESRSSTPLPTISSSAENTRQNGSNDSDRYSDNEEGKKKEHKKVKSTRDIVPFSELGTTPSGGGFFQGISFPEISTRPPLGSTELQAAKKVHTSKGDLPREPLVATNLPGRGQLQKLASERNLFISCKSSHDRCLEKSSSSSSQPEHSAMLVSTAASPSLIKETTTGYYKDIVENICGREKSGIQPLCPERSHISDQSPLSSKRKALEESESSQLISPPLAQAIRDYVNSLLVQGGVGSLPGTSNSMPPLDVENIQKRIDQSKFQETEFLSPPRKVPRLSEKSVEERDSGSFVAFQNIPGSELMSSFAKTVVSHSLTTLGLEVAKQSQHDKIDASELSFPFHESILKVIEEEWQQVDRQLPSLACKYPVSSREATQILSVPKVDDEILGFISEATPLGGIQAASTESCNQQLDLALCRAYEAAASALQIATHTAFVAKAMQADISQAAQILSSDPSRTHQALGILSKTYDAASYICEAAFDEVKMAAHTMGNATVGRRYLWLKDCKINLASKNKLASTPFKGGTLFGGEVCKVIKKRGNKH

Chains of the proteins cited; added tags and fusions are not shown.
UniProt Q04695: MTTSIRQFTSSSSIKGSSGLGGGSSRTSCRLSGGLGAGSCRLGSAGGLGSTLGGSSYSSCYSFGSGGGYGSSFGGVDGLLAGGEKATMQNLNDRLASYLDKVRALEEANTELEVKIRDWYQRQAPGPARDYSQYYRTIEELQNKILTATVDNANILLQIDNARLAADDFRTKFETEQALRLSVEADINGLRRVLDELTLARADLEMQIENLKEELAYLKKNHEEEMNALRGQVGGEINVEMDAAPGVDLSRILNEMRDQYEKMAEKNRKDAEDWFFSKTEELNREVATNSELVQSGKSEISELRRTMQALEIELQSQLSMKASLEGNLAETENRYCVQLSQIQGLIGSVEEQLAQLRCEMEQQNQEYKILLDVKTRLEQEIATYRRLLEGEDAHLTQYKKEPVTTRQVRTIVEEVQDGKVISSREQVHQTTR

biological target: Keratin 17 (human (endogenous in HeLa and A431)) (UniProt Q04695); experiment: co-IP

binding, binds:
B1
B2
B3
B4

Source: paper doi:10.1101/2020.07.16.206730
